# Results are given in words; binding and its absence hold for the method and conditions named. Binding seen in cells or lysates may run through a third protein. A yes stands for co-enrichment or nearness to the bait. Other partners may have been found.
# Amino acid sequences for entries named in this document (tags omitted).
# UniProt P26368: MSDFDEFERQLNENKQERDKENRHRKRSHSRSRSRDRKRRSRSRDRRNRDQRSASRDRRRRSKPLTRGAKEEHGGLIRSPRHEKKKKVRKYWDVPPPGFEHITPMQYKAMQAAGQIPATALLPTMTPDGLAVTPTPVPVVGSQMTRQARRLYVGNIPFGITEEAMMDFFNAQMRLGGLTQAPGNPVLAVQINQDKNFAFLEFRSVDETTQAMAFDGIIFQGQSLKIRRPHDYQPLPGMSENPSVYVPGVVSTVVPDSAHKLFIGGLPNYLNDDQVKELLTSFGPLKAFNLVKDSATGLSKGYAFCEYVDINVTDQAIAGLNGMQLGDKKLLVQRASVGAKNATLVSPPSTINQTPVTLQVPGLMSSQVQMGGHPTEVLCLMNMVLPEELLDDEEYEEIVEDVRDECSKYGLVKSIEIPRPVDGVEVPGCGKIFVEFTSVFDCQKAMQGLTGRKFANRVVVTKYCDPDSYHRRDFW
# Target: U2AF2-TurboID-HA (human) (UniProt P26368)
# Test: proximity labelling; U2AF2-TurboID-HA induced with doxycycline for 4 h in mesoderm cells differentiated from hiPSC (CHIR99021, 24 h); biotinylated proteins purified on streptavidin magnetic beads, LC-MS with label-free quantification; hits: Log2ΔLFQ >= 2 and p <= 0.05, mesoderm against pluripotent U2AF2-TurboID samples or against GFP-TurboID
row,Binder,binding
1,"CHERP (protein, UniProt Q8IWX8 1-916) MEMPLPPDDQELRNVIDKLAQFVARNGPEFEKMTMEKQKDNPKFSFLFGGEFYSYYKCKLALEQQQLICKQQTPELEPAATMPPLPQPPLAPAAPIPPAQGAPSMDELIQQSQWNLQQQEQHLLALRQEQVTAAVAHAVEQQMQKLLEETQLDMNEFDNLLQPIIDTCTKDAISAGKNWMFSNAKSPPHCELMAGHLRNRITADGAHFELRLHLIYLINDVLHHCQRKQARELLAALQKVVVPIYCTSFLAVEEDKQQKIARLLQLWEKNGYFDDSIIQQLQSPALGLGQYQATLINEYSSVVQPVQLAFQQQIQTLKTQHEEFVTSLAQQQQQQQQQQQQLQMPQMEAEVKATPPPPAPPPAPAPAPAIPPTTQPDDSKPPIQMPGSSEYEAPGGVQDPAAAGPRGPGPHDQIPPNKPPWFDQPHPVAPWGQQQPPEQPPYPHHQGGPPHCPPWNNSHEGMWGEQRGDPGWNGQRDAPWNNQPDAAWNSQFEGPWNSQHEQPPWGGGQREPPFRMQRPPHFRGPFPPHQQHPQFNQPPHPHNFNRFPPRFMQDDFPPRHPFERPPYPHRFDYPQGDFPAEMGPPHHHPGHRMPHPGINEHPPWAGPQHPDFGPPPHGFNGQPPHMRRQGPPHINHDDPSLVPNVPYFDLPAGLMAPLVKLEDHEYKPLDPKDIRLPPPMPPSERLLAAVEAFYSPPSHDRPRNSEGWEQNGLYEFFRAKMRARRRKGQEKRNSGPSRSRSRSKSRGRSSSRSNSRSSKSSGSYSRSRSRSCSRSYSRSRSRSRSRSRSSRSRSRSQSRSRSKSYSPGRRRRSRSRSPTPPSSAGLGSNSAPPIPDSRLGEENKGHQMLVKMGWSGSGGLGAKEQGIQDPIKGGDVRDKWDQYKGVGVALDDPYENYRRNKSYSFIARMKARDECK",binds
2,"ZNF281 (protein, UniProt Q9Y2X9 1-895) MKIGSGFLSGGGGTGSSGGSGSGGGGSGGGGGGGSSGRRAEMEPTFPQGMVMFNHRLPPVTSFTRPAGSAAPPPQCVLSSSTSAAPAAEPPPPPAPDMTFKKEPAASAAAFPSQRTSWGFLQSLVSIKQEKPADPEEQQSHHHHHHHHYGGLFAGAEERSPGLGGGEGGSHGVIQDLSILHQHVQQQPAQHHRDVLLSSSSRTDDHHGTEEPKQDTNVKKAKRPKPESQGIKAKRKPSASSKPSLVGDGEGAILSPSQKPHICDHCSAAFRSSYHLRRHVLIHTGERPFQCSQCSMGFIQKYLLQRHEKIHSREKPFGCDQCSMKFIQKYHMERHKRTHSGEKPYKCDTCQQYFSRTDRLLKHRRTCGEVIVKGATSAEPGSSNHTNMGNLAVLSQGNTSSSRRKTKSKSIAIENKEQKTGKTNESQISNNINMQSYSVEMPTVSSSGGIIGTGIDELQKRVPKLIFKKGSRKNTDKNYLNFVSPLPDIVGQKSLSGKPSGSLGIVSNNSVETIGLLQSTSGKQGQISSNYDDAMQFSKKRRYLPTASSNSAFSINVGHMVSQQSVIQSAGVSVLDNEAPLSLIDSSALNAEIKSCHDKSGIPDEVLQSILDQYSNKSESQKEDPFNIAEPRVDLHTSGEHSELVQEENLSPGTQTPSNDKASMLQEYSKYLQQAFEKSTNASFTLGHGFQFVSLSSPLHNHTLFPEKQIYTTSPLECGFGQSVTSVLPSSLPKPPFGMLFGSQPGLYLSALDATHQQLTPSQELDDLIDSQKNLETSSAFQSSSQKLTSQKEQKNLESSTGFQIPSQELASQIDPQKDIEPRTTYQIENFAQAFGSQFKSGSRVPMTFITNSNGEVDHRVRTSVSDFSGYTNMMSDVSEPCSTRVKTPTSQSYR",binds
3,"ZC3H14 (protein, UniProt Q6PJT7 1-736) MEIGTEISRKIRSAIKGKLQELGAYVDEELPDYIMVMVANKKSQDQMTEDLSLFLGNNTIRFTVWLHGVLDKLRSVTTEPSSLKSSDTNIFDSNVPSNKSNFSRGDERRHEAAVPPLAIPSARPEKRDSRVSTSSQESKTTNVRQTYDDGAATRLMSTVKPLREPAPSEDVIDIKPEPDDLIDEDLNFVQENPLSQKKPTVTLTYGSSRPSIEIYRPPASRNADSGVHLNRLQFQQQQNSIHAAKQLDMQSSWVYETGRLCEPEVLNSLEETYSPFFRNNSEKMSMEDENFRKRKLPVVSSVVKVKKFNHDGEEEEEDDDYGSRTGSISSSVSVPAKPERRPSLPPSKQANKNLILKAISEAQESVTKTTNYSTVPQKQTLPVAPRTRTSQEELLAEVVQGQSRTPRISPPIKEEETKGDSVEKNQGTQQRQLLSRLQIDPVMAETLQMSQDYYDMESMVHADTRSFILKKPKLSEEVVVAPNQESGMKTADSLRVLSGHLMQTRDLVQPDKPASPKFIVTLDGVPSPPGYMSDQEEDMCFEGMKPVNQTAASNKGLRGLLHPQQLHLLSRQLEDPNGSFSNAEMSELSVAQKPEKLLERCKYWPACKNGDECAYHHPISPCKAFPNCKFAEKCLFVHPNCKYDAKCTKPDCPFTHVSRRIPVLSPKPAVAPPAPPSSSQLCRYFPACKKMECPFYHPKHCRFNTQCTRPDCTFYHPTINVPPRHALKWIRPQTSE",binds
4,"HELLS (protein, UniProt Q9NRZ9 1-838) MPAERPAGSGGSEAPAMVEQLDTAVITPAMLEEEEQLEAAGLERERKMLEKARMSWDRESTEIRYRRLQHLLEKSNIYSKFLLTKMEQQQLEEQKKKEKLERKKESLKVKKGKNSIDASEEKPVMRKKRGREDESYNISEVMSKEEILSVAKKNKKENEDENSSSTNLCVEDLQKNKDSNSIIKDRLSETVRQNTKFFFDPVRKCNGQPVPFQQPKHFTGGVMRWYQVEGMEWLRMLWENGINGILADEMGLGKTVQCIATIALMIQRGVPGPFLVCGPLSTLPNWMAEFKRFTPDIPTMLYHGTQEERQKLVRNIYKRKGTLQIHPVVITSFEIAMRDRNALQHCYWKYLIVDEGHRIKNMKCRLIRELKRFNADNKLLLTGTPLQNNLSELWSLLNFLLPDVFDDLKSFESWFDITSLSETAEDIIAKEREQNVLHMLHQILTPFLLRRLKSDVALEVPPKREVVVYAPLSKKQEIFYTAIVNRTIANMFGSSEKETIELSPTGRPKRRTRKSINYSKIDDFPNELEKLISQIQPEVDRERAVVEVNIPVESEVNLKLQNIMMLLRKCCNHPYLIEYPIDPVTQEFKIDEELVTNSGKFLILDRMLPELKKRGHKVLLFSQMTSMLDILMDYCHLRDFNFSRLDGSMSYSEREKNMHSFNTDPEVFIFLVSTRAGGLGINLTAADTVIIYDSDWNPQSDLQAQDRCHRIGQTKPVVVYRLVTANTIDQKIVERAAAKRKLEKLIIHKNHFKGGQSGLNLSKNFLDPKELMELLKSRDYEREIKGSREKVISDKDLELLLDRSDLIDQMNASGPIKEKMGIFKILENSEDSSPECLF",binds

# More lines, now with the values ahead:
row,binding,Binder
1,binds,"NONO (protein, UniProt Q15233 1-471) MQSNKTFNLEKQNHTPRKHHQHHHQQQHHQQQQQQPPPPPIPANGQQASSQNEGLTIDLKNFRKPGEKTFTQRSRLFVGNLPPDITEEEMRKLFEKYGKAGEVFIHKDKGFGFIRLETRTLAEIAKVELDNMPLRGKQLRVRFACHSASLTVRNLPQYVSNELLEEAFSVFGQVERAVVIVDDRGRPSGKGIVEFSGKPAARKALDRCSEGSFLLTTFPRPVTVEPMDQLDDEEGLPEKLVIKNQQFHKEREQPPRFAQPGSFEYEYAMRWKALIEMEKQQQDQVDRNIKEAREKLEMEMEAARHEHQVMLMRQDLMRRQEELRRMEELHNQEVQKRKQLELRQEEERRRREEEMRRQQEEMMRRQQEGFKGTFPDAREQEIRMGQMAMGGAMGINNRGAMPPAPVPAGTPAPPGPATMMPDGTLGLTPPTTERFGQAATMEGIGAIGGTPPAFNRAAPGAEFAPNKRRRY"
2,binds,"RBM14 (protein, UniProt Q96PK6 1-669) MKIFVGNVDGADTTPEELAALFAPYGTVMSCAVMKQFAFVHMRENAGALRAIEALHGHELRPGRALVVEMSRPRPLNTWKIFVGNVSAACTSQELRSLFERRGRVIECDVVKDYAFVHMEKEADAKAAIAQLNGKEVKGKRINVELSTKGQKKGPGLAVQSGDKTKKPGAGDTAFPGTGGFSATFDYQQAFGNSTGGFDGQARQPTPPFFGRDRSPLRRSPPRASYVAPLTAQPATYRAQPSVSLGAAYRAQPSASLGVGYRTQPMTAQAASYRAQPSVSLGAPYRGQLASPSSQSAAASSLGPYGGAQPSASALSSYGGQAAAASSLNSYGAQGSSLASYGNQPSSYGAQAASSYGVRAAASSYNTQGAASSLGSYGAQAASYGAQSAASSLAYGAQAASYNAQPSASYNAQSAPYAAQQAASYSSQPAAYVAQPATAAAYASQPAAYAAQATTPMAGSYGAQPVVQTQLNSYGAQASMGLSGSYGAQSAAAATGSYGAAAAYGAQPSATLAAPYRTQSSASLAASYAAQQHPQAAASYRGQPGNAYDGAGQPSAAYLSMSQGAVANANSTPPPYERTRLSPPRASYDDPYKKAVAMSKRYGSDRRLAELSDYRRLSESQLSFRRSPTKSSLDYRRLPDAHSDYARYSGSYNDYLRAAQMHSGYQRRM"
3,binds,"TMPO (protein, UniProt P42166 1-694) MPEFLEDPSVLTKDKLKSELVANNVTLPAGEQRKDVYVQLYLQHLTARNRPPLPAGTNSKGPPDFSSDEEREPTPVLGSGAAAAGRSRAAVGRKATKKTDKPRQEDKDDLDVTELTNEDLLDQLVKYGVNPGPIVGTTRKLYEKKLLKLREQGTESRSSTPLPTISSSAENTRQNGSNDSDRYSDNEEGKKKEHKKVKSTRDIVPFSELGTTPSGGGFFQGISFPEISTRPPLGSTELQAAKKVHTSKGDLPREPLVATNLPGRGQLQKLASERNLFISCKSSHDRCLEKSSSSSSQPEHSAMLVSTAASPSLIKETTTGYYKDIVENICGREKSGIQPLCPERSHISDQSPLSSKRKALEESESSQLISPPLAQAIRDYVNSLLVQGGVGSLPGTSNSMPPLDVENIQKRIDQSKFQETEFLSPPRKVPRLSEKSVEERDSGSFVAFQNIPGSELMSSFAKTVVSHSLTTLGLEVAKQSQHDKIDASELSFPFHESILKVIEEEWQQVDRQLPSLACKYPVSSREATQILSVPKVDDEILGFISEATPLGGIQAASTESCNQQLDLALCRAYEAAASALQIATHTAFVAKAMQADISQAAQILSSDPSRTHQALGILSKTYDAASYICEAAFDEVKMAAHTMGNATVGRRYLWLKDCKINLASKNKLASTPFKGGTLFGGEVCKVIKKRGNKH"
4,binds,"XAB2 (protein, UniProt Q9HCS7 1-855) MVVMARLSRPERPDLVFEEEDLPYEEEIMRNQFSVKCWLRYIEFKQGAPKPRLNQLYERALKLLPCSYKLWYRYLKARRAQVKHRCVTDPAYEDVNNCHERAFVFMHKMPRLWLDYCQFLMDQGRVTHTRRTFDRALRALPITQHSRIWPLYLRFLRSHPLPETAVRGYRRFLKLSPESAEEYIEYLKSSDRLDEAAQRLATVVNDERFVSKAGKSNYQLWHELCDLISQNPDKVQSLNVDAIIRGGLTRFTDQLGKLWCSLADYYIRSGHFEKARDVYEEAIRTVMTVRDFTQVFDSYAQFEESMIAAKMETASELGREEEDDVDLELRLARFEQLISRRPLLLNSVLLRQNPHHVHEWHKRVALHQGRPREIINTYTEAVQTVDPFKATGKPHTLWVAFAKFYEDNGQLDDARVILEKATKVNFKQVDDLASVWCQCGELELRHENYDEALRLLRKATALPARRAEYFDGSEPVQNRVYKSLKVWSMLADLEESLGTFQSTKAVYDRILDLRIATPQIVINYAMFLEEHKYFEESFKAYERGISLFKWPNVSDIWSTYLTKFIARYGGRKLERARDLFEQALDGCPPKYAKTLYLLYAQLEEEWGLARHAMAVYERATRAVEPAQQYDMFNIYIKRAAEIYGVTHTRGIYQKAIEVLSDEHAREMCLRFADMECKLGEIDRARAIYSFCSQICDPRTTGAFWQTWKDFEVRHGNEDTIKEMLRIRRSVQATYNTQVNFMASQMLKVSGSATGTVSDLAPGQSGMDDMKLLEQRAEQLAAEAERDQPLRAQSKILFVRSDASREELAELAQQVNPEEIQLGEDEDEDEMDLEPNEVRLEQQSVPAAVFGSLKED"
